# Reference: the supplement of paper PMC12819154, “High-throughput peptide-centric local stability assay extends protein–ligand identification to membrane proteins, tissues and bacteria” (Nature Structural & Molecular Biology, 2025)
# Protein sequences, listed by entry. Tags and fused reporters are not part of them. Lines headed by an entry give the natural chain unless they say otherwise; changes in a name come on top.
# UniProt O75386: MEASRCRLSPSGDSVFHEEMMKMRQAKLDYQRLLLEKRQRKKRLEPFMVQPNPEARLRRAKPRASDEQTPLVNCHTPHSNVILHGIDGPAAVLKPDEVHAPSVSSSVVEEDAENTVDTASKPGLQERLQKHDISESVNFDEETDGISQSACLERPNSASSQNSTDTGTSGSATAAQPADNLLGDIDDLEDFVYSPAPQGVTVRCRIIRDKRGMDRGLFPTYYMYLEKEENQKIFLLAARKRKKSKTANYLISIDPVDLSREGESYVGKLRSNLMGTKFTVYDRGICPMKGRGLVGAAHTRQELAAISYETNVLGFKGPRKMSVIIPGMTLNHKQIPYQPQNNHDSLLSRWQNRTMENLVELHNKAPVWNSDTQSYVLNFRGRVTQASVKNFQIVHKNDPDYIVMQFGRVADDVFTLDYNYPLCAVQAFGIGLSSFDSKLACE
# UniProt O75146: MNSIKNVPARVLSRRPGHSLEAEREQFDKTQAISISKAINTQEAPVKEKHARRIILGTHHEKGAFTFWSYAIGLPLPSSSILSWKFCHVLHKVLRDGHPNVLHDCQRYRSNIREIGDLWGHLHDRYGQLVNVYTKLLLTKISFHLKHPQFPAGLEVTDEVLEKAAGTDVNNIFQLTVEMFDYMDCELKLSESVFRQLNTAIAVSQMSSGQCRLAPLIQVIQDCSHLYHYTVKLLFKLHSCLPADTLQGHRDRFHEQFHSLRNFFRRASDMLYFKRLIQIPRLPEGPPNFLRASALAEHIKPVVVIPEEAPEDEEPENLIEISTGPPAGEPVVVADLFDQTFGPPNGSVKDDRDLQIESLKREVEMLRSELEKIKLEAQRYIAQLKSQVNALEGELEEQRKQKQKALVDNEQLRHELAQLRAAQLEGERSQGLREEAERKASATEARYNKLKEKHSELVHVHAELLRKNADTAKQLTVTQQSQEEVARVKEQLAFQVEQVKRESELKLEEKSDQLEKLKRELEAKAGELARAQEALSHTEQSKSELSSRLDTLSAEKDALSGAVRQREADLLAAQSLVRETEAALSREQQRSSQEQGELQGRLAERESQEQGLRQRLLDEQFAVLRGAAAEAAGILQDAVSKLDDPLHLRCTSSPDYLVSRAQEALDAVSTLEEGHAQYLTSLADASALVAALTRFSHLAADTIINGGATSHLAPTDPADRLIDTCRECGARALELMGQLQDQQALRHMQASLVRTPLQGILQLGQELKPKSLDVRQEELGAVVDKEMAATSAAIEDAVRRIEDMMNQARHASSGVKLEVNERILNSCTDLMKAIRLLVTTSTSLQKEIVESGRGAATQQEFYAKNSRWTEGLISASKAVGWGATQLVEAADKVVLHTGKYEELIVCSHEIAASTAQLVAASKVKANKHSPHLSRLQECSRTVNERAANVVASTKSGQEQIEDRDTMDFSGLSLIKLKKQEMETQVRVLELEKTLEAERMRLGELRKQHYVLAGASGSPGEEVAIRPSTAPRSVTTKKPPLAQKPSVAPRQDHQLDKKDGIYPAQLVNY
# UniProt O43325: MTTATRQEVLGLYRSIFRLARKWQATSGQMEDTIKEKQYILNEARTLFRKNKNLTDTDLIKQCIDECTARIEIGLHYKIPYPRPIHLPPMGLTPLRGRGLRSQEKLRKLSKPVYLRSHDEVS
# UniProt O43422: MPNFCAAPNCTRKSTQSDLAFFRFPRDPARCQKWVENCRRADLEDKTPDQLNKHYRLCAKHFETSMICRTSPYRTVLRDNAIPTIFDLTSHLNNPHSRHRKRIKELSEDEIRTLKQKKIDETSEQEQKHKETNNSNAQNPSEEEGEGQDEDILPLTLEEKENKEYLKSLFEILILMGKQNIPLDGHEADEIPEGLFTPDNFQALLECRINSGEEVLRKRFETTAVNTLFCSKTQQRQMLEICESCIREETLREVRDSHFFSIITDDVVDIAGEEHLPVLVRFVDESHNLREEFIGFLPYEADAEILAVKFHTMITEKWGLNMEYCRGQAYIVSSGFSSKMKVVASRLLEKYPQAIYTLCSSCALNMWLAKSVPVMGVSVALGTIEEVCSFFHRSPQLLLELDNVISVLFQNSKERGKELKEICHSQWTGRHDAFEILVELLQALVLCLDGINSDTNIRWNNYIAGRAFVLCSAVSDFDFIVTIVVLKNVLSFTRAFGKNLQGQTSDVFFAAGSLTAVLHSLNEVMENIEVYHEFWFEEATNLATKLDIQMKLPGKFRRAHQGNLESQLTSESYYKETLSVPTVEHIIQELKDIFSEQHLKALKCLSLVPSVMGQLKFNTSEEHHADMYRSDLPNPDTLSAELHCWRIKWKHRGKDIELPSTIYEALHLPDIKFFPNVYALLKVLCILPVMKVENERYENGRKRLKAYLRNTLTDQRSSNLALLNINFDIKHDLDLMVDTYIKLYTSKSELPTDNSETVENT
# UniProt O43312: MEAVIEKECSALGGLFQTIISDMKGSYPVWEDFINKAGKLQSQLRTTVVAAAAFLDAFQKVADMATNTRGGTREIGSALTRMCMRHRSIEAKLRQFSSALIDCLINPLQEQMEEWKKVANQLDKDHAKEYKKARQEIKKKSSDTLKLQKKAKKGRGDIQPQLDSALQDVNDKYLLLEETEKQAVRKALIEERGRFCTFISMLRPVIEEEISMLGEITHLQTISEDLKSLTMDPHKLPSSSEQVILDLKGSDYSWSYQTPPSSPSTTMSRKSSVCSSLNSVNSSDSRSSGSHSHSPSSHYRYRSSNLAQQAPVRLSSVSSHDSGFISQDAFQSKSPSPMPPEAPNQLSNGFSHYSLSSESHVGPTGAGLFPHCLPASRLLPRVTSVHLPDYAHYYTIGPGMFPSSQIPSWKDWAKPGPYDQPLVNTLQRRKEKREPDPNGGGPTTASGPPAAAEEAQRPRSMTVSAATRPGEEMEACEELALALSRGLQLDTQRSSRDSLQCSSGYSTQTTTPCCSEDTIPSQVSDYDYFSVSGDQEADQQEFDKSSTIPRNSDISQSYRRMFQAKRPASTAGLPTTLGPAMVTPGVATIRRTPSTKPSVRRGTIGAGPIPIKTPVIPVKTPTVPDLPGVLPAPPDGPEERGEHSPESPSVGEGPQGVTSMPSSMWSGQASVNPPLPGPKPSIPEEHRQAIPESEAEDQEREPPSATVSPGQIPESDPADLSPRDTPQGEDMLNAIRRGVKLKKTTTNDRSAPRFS
# UniProt O60303: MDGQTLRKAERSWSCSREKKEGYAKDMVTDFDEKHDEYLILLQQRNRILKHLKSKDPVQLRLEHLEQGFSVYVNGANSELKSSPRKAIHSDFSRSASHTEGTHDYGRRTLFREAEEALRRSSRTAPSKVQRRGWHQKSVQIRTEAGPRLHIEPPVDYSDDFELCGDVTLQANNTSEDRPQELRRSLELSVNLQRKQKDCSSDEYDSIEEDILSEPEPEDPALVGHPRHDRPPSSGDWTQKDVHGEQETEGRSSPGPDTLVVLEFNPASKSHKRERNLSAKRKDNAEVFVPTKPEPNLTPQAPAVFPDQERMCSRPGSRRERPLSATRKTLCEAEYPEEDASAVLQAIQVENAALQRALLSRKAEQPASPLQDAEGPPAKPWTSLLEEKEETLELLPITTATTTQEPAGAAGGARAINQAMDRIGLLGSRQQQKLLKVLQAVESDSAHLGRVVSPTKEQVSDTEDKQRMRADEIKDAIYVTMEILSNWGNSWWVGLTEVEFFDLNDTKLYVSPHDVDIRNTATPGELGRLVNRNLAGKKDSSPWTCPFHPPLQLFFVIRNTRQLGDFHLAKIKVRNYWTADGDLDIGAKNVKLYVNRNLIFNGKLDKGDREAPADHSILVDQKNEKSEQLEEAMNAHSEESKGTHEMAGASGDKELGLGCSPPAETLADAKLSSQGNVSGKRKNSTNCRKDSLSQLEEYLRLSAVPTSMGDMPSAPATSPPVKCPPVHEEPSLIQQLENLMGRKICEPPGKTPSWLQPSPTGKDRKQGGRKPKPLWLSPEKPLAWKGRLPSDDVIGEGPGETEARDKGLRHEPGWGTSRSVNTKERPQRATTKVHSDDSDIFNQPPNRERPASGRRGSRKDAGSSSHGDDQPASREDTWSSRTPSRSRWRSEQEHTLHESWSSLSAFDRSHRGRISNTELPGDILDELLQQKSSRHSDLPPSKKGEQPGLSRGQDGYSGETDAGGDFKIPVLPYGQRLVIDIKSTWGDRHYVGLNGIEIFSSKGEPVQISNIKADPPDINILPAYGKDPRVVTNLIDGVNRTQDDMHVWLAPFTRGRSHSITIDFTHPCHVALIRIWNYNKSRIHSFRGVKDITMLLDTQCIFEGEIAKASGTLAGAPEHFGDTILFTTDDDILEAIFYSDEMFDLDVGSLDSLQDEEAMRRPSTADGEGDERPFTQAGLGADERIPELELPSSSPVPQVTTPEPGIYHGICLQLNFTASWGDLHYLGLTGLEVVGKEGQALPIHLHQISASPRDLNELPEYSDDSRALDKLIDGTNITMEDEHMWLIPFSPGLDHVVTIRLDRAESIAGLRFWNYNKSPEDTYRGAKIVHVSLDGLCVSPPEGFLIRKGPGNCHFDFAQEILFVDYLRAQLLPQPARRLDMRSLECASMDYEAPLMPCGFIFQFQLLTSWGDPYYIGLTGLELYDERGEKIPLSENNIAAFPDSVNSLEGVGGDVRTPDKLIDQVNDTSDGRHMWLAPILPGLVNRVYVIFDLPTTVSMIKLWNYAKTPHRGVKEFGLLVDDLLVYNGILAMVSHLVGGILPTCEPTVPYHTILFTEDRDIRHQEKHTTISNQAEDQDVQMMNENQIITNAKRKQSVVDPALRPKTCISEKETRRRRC
# UniProt O43414: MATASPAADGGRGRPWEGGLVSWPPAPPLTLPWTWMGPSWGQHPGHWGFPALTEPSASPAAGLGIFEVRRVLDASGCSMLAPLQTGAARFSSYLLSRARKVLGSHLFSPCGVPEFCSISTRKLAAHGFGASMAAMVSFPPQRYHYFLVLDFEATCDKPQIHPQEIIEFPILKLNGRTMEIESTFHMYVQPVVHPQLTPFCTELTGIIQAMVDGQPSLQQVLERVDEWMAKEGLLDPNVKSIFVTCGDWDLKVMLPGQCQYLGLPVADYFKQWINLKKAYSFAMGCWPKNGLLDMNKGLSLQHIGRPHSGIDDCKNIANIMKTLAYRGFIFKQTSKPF
# UniProt O43502: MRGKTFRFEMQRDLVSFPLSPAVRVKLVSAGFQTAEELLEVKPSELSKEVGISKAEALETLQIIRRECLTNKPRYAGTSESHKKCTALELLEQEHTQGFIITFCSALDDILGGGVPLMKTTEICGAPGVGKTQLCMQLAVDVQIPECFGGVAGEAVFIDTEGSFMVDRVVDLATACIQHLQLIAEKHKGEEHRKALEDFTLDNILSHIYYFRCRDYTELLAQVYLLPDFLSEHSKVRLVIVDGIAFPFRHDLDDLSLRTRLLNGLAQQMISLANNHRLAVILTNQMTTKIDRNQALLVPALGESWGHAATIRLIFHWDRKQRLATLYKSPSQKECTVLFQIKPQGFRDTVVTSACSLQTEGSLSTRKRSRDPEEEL
# UniProt O75354: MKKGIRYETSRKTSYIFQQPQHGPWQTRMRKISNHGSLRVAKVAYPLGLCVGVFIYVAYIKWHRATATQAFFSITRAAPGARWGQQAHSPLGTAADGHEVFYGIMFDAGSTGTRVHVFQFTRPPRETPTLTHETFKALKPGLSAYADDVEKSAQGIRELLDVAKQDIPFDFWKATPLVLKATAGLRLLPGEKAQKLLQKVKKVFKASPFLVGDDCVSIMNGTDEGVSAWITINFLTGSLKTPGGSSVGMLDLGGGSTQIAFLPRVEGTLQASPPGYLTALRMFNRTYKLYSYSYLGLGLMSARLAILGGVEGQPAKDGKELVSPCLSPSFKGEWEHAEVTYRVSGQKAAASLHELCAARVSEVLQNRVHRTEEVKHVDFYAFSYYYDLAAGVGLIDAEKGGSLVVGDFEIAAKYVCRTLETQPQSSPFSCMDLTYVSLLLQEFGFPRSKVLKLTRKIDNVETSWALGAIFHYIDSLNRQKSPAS
# The list shows a part of the results. Most values lie at the level of the controls, where differences are scatter.
# Compound: Cc1nc(Nc2ncc(C(=O)Nc3c(C)cccc3Cl)s2)cc(N2CCN(CCO)CC2)n1 [dasatinib]
# Experiment: log2 fold change of tryptic peptide abundance, ligand vs vehicle (limited proteolysis) (log2 ratio); higher = more trypsin-susceptible (destabilized)
# Details: ligand concentration: 5 uM; sample: K562 cleared lysate
row,Target,log2 fold change
1,"TULP3 (peptide sequence: LSPSGDSVFHEEMMK, peptide start residue: 8) (UniProt O75386)",0.204
2,"HIP1R (peptide sequence: QREADLLAAQSLVR, peptide start residue: 565) (UniProt O75146)",-0.179
3,"LYRM1 (peptide sequence: KWQATSGQMEDTIKEK, peptide start residue: 22) (UniProt O43325)",0.392
4,"UniProt O43422 (peptide sequence: INSGEEVLR, peptide start residue: 209)",0.108
5,"MTSS1 (peptide sequence: VADMATNTR, peptide start residue: 60) (UniProt O43312)",-0.302
6,"KIAA0556 (peptide sequence: VLQAVESDSAHLGR, peptide start residue: 437) (UniProt O60303)",-0.217
7,"ERI3 (peptide sequence: NGLLDMNK, peptide start residue: 289) (UniProt O43414)",-0.141
8,"RAD51C (peptide sequence: IDRNQALLVPALGESWGHAATIR, peptide start residue: 290) (UniProt O43502)",0.248
9,"ENTPD6 (peptide sequence: ETPTLTHETFK, peptide start residue: 126) (UniProt O75354)",-0.363

# 2 entries from above, tab-delimited:
row	Target	log2 fold change
7	ERI3 (peptide sequence: NGLLDMNK, peptide start residue: 289) (UniProt O43414)	-0.141
8	RAD51C (peptide sequence: IDRNQALLVPALGESWGHAATIR, peptide start residue: 290) (UniProt O43502)	0.248
